Data: the supplement of paper PMC10849652
Some of the results follow.

Sequences of proteins named here, by UniProt entry; tags and fusion partners are left off. A change or cut given only in a name is not applied to a line headed by its entry.
UniProt Q8WWH5: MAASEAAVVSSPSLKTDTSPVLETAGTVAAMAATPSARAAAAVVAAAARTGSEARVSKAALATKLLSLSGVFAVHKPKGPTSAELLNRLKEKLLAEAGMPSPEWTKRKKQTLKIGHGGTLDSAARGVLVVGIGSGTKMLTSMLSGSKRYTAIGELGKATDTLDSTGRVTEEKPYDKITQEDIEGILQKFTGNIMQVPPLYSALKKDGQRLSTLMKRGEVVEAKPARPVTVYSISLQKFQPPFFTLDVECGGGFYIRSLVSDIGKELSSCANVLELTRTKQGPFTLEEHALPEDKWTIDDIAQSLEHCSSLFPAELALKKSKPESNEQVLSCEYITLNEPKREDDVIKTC
UniProt Q9Y2L5: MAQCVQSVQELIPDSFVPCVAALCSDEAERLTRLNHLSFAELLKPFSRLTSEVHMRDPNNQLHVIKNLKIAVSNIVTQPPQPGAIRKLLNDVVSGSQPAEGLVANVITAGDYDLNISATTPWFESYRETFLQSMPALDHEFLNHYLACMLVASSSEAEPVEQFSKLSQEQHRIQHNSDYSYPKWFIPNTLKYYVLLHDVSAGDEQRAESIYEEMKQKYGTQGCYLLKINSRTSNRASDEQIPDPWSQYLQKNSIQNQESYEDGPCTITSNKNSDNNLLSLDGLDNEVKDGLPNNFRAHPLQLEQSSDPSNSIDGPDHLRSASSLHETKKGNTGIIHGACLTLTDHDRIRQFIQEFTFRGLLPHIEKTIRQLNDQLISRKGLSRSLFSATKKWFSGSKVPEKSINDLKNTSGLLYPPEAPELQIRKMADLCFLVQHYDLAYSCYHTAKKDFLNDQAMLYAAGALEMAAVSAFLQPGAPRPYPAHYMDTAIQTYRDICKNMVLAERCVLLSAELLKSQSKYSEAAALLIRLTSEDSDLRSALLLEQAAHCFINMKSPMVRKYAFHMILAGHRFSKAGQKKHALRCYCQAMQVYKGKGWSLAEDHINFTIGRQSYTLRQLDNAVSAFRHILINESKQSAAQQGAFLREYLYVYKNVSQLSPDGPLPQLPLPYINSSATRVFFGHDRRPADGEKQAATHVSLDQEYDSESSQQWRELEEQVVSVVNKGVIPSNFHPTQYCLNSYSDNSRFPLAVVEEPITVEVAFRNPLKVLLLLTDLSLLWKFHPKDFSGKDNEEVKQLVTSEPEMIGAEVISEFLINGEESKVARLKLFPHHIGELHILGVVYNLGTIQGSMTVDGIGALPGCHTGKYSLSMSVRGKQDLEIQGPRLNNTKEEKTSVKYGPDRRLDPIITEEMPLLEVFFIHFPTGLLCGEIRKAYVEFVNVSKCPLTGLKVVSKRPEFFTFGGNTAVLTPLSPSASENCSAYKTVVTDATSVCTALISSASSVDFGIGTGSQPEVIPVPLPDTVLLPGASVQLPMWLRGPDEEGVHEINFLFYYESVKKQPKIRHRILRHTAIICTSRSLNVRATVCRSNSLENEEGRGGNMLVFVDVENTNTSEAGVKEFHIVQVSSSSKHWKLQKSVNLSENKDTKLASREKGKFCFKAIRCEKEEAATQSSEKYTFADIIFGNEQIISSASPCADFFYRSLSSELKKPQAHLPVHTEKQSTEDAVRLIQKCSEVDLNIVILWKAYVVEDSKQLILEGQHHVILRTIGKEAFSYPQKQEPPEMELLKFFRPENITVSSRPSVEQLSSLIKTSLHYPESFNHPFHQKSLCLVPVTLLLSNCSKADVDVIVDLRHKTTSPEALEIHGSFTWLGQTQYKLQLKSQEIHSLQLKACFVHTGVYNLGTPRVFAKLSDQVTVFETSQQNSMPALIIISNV
UniProt Q9H3H1: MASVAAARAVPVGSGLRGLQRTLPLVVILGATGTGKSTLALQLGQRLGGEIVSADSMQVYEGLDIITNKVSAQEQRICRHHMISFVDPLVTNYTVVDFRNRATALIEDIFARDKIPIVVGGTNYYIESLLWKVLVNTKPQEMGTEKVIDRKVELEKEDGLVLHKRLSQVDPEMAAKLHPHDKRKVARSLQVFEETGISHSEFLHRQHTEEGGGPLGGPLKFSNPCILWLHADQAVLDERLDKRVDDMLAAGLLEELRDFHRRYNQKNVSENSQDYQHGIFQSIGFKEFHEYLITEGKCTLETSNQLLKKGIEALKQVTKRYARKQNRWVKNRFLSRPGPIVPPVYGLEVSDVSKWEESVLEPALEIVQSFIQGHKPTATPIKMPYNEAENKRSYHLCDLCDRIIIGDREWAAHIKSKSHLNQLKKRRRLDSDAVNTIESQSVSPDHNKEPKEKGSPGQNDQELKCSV
UniProt Q8NCE0: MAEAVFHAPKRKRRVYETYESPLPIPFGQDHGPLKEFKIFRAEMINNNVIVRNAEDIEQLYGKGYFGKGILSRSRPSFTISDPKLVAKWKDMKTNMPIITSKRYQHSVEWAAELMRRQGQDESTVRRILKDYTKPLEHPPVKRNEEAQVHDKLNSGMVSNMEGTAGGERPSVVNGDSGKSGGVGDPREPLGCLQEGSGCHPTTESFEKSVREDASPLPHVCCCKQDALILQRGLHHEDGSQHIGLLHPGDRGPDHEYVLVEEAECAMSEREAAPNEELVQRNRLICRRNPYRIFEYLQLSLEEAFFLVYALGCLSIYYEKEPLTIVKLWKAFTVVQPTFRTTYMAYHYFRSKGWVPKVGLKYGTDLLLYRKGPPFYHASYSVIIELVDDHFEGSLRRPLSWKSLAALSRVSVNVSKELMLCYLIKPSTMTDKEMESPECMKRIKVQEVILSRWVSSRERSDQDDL
UniProt Q96FX7: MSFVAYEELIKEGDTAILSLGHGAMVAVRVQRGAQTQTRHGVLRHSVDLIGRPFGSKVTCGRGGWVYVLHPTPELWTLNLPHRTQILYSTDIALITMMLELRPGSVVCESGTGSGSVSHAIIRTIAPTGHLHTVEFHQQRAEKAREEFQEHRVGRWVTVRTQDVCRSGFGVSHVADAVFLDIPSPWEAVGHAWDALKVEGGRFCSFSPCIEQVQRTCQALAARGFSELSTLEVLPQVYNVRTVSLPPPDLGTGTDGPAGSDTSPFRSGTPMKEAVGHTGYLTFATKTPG
UniProt Q7L0Y3: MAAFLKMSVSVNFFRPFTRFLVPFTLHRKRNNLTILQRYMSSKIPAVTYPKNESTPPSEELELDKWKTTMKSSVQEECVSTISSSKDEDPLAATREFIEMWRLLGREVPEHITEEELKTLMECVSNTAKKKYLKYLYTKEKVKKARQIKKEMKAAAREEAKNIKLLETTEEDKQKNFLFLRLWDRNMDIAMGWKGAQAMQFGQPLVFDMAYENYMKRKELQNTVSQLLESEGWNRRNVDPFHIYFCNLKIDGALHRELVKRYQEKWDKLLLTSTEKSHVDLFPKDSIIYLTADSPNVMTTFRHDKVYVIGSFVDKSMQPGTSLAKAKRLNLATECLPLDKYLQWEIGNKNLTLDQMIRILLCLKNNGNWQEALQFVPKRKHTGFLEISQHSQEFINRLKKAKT
UniProt Q6NXR4: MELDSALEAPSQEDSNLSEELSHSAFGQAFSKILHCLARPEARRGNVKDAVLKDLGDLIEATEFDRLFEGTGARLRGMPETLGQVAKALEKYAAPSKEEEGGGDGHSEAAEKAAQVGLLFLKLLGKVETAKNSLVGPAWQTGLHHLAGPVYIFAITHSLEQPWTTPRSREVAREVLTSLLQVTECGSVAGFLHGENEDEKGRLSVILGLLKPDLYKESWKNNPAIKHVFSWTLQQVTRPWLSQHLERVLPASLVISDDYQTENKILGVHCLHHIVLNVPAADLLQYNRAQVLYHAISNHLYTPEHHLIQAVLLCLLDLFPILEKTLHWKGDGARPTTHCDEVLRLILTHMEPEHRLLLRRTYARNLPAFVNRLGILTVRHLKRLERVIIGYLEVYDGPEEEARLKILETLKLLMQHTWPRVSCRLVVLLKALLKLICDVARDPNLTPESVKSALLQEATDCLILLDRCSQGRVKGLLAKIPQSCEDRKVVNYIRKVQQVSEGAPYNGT
UniProt Q86SZ2: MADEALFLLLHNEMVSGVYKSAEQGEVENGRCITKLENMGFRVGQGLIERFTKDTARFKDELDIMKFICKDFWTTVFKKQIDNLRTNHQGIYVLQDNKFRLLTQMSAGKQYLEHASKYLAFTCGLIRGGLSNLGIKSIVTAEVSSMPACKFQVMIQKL
UniProt O14545: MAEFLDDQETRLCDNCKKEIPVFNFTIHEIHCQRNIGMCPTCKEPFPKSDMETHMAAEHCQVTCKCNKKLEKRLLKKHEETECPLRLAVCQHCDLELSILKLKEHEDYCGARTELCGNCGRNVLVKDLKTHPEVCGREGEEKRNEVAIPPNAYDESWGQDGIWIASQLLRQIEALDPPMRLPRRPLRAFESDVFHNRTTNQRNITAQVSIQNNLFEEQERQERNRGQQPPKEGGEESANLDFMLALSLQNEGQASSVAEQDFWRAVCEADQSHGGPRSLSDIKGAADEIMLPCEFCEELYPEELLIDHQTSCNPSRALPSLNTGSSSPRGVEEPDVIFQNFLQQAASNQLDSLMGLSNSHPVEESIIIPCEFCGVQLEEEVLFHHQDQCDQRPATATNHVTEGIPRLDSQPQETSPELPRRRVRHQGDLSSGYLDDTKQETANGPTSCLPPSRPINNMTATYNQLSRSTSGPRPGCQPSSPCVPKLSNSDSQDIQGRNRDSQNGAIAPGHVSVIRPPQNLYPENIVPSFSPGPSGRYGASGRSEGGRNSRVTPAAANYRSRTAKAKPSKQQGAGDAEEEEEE
UniProt Q9Y296, whole entry, looked up: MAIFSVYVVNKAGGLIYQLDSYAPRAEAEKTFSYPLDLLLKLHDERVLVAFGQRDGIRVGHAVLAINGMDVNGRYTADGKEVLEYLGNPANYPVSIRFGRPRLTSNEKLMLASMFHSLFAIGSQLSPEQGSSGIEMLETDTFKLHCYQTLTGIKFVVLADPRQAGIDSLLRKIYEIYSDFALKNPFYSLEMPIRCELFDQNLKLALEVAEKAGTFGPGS
UniProt Q13049: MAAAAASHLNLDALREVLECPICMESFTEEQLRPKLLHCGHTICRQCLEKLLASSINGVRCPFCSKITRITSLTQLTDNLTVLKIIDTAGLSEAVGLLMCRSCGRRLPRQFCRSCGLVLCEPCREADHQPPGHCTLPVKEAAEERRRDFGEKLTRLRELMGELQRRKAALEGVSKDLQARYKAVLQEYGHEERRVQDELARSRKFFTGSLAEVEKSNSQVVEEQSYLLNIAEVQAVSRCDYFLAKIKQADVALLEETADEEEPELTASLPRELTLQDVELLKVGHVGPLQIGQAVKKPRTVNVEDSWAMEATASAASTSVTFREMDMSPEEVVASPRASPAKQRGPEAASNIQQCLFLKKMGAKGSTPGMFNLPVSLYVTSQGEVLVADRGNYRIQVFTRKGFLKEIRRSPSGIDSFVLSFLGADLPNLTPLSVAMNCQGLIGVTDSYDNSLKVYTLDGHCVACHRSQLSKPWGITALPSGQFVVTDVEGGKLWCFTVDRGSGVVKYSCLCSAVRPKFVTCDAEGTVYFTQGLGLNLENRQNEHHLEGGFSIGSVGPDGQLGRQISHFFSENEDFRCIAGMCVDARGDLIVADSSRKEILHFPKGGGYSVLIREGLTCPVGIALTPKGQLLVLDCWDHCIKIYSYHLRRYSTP
UniProt Q9NUP7: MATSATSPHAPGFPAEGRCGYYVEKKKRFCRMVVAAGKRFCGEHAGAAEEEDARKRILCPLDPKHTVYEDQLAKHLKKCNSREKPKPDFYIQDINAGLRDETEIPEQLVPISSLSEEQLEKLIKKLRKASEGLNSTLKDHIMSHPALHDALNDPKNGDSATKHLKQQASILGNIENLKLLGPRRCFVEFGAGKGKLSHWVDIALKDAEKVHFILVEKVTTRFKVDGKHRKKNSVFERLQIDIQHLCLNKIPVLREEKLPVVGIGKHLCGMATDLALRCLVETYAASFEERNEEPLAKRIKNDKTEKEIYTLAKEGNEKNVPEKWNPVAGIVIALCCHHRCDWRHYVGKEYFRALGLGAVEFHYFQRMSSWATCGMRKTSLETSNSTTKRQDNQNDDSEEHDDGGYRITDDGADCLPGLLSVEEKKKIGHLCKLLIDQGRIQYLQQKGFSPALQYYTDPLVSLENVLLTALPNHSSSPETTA
UniProt Q96GJ1: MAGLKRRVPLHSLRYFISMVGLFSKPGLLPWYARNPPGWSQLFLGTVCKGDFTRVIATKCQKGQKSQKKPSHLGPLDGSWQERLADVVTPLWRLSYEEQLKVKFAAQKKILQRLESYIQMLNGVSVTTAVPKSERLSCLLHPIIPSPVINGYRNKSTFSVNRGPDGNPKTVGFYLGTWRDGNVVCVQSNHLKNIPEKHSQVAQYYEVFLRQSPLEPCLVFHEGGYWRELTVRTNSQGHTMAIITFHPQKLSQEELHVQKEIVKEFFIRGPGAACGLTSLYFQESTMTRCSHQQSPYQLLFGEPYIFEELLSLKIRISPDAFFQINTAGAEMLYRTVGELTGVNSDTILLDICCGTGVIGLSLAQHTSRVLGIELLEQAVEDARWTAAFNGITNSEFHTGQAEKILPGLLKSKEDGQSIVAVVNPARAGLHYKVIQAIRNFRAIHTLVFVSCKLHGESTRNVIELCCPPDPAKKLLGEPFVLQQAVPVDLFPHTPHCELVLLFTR

Legend:
Experiment in all cases: log2 fold change, soluble protein after heating vs DMSO (PISA); higher = thermal stabilisation; K562 lysate, 10 uM; active = over 0.2 and 3.5 SD of the protein, either way, in both replicates (recomputed)
[1] = compound: Cc1cn(-c2cc(NC(=O)c3ccc(C)c(Nc4nccc(-c5cccnc5)n4)c3)cc(C(F)(F)F)c2)cn1 [nilotinib]
In short: (§1)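 Log-two fold change in thermal stability relative to solvent controls is reported from duplicates. For each sample, crude K562 extract from dounce-homogenised pellets in PBS pH 7.4 with 1 mM MgCl2, at 1 mg/mL protein, was treated with 10 μM compound for 30 min. Aliquots heated for 3 min across 48°C-58°C were pooled, brought to 0.5% NP-40 at 4°C and cleared at 21,000xg for 90 min. The supernatant was quantified by TMTpro 16plex LC-MS/MS with channel sums equalised.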

[2] = compound: Cc1nc(Nc2n[nH]c3c2CN(C(=O)N[C@H](CN(C)C)c2ccccc2)C3(C)C)c2sccc2n1
In short: as §1

[3] = compound: Cc1nc(Nc2ncc(C(=O)Nc3c(C)cccc3Cl)s2)cc(N2CCN(CCO)CC2)n1 [dasatinib]
In short: as §1

[4] = compound: Cc1ncc(-c2ccnc(Nc3ccc(S(C)(=O)=O)cc3)n2)n1C(C)C
In short: as §1

[5] = compound: Cn1cc(-c2ccc3c(c2)CCN3C(=O)Cc2cccc(C(F)(F)F)c2)c2c(N)ncnc21
In short: as §1

[6] = compound: Cn1cc(CNCC2CCN(c3ncc(C(=O)NO)cn3)CC2)c2ccccc21 [quisinostat]
In short: as §1

[7] = compound: Cn1cncc1[C@@](N)(c1ccc(Cl)cc1)c1ccc2c(c1)c(-c1cccc(Cl)c1)cc(=O)n2C [tipifarnib]
In short: as §1

[8] = compound: NC(=O)Nc1cc(-c2cccc(F)c2)sc1C(=O)N[C@H]1CCCNC1
In short: as §1

[9] = compound: NC(=O)c1cnc(N[C@@H]2CCCC[C@@H]2N)nc1Nc1cccc(-n2nccn2)c1
In short: as §1

[10] = compound: NC1(c2ccc(-c3nc4ccn5c(=O)[nH]nc5c4cc3-c3ccccc3)cc2)CCC1
In short: as §1

[11] = compound: NCC(=O)Nc1ccc(-n2nc(C(F)(F)F)cc2-c2ccc3c(ccc4ccccc43)c2)cc1
In short: as §1

[12] = compound: O=C(CCCCCCC(=O)Nc1ccccc1)NO [vorinostat]
In short: as §1

[13] = compound: O=C(O)c1ccc2c(c1)nc(Nc1cccc(Cl)c1)c1ccncc12 [silmitasertib]
In short: as §1

[14] = compound: O=C1NC(=O)C(c2cnc3ccccn23)=C1c1cn2c3c(cc(F)cc13)CN(C(=O)N1CCCCC1)CC2
In short: as §1

[15] = compound: c1cn2cc(-c3ccc4cn[nH]c4c3)nc(Nc3ccc(N4CCOCC4)cc3)c2n1 [entospletinib]
In short: as §1

Measured: log2 fold change

TRIM38 (UniProt O00635)
inactive: [1] -0.008 | [2] -0.036 | [3] -0.084 | [4] 0.027 | [5] 0.056 | [6] -0.032 | [7] 0.016 | [8] -0.017 | [9] 0.062 | [10] 0.069 | [11] 0.037 | [12] -0.21 | [13] 0.042 | [14] -0.045 | [15] -0.074

TRUB1 (UniProt Q8WWH5)
inactive: [1] -0.008 | [2] -0.042 | [3] -0.064 | [4] 0.046 | [5] 0.025 | [6] -0.005 | [7] -0.015 | [8] 0.008 | [9] -0.102 | [10] 0 | [11] 0.044 | [12] -0.218 | [13] -0.021 | [14] 0.039 | [15] -0.007

TRAPPC8 (UniProt Q9Y2L5)
inactive: [1] 0.008 | [2] -0.001 | [3] -0.071 | [4] -0.002 | [5] 0.059 | [6] -0.009 | [7] 0.006 | [8] 0.014 | [9] 0 | [10] -0.007 | [11] 0.036 | [12] -0.124 | [13] 0 | [14] -0.059 | [15] 0.005

Looked up one by one from the entries so far (two):
TRUB1 (UniProt Q8WWH5)
inactive: [1] -0.008 | [2] -0.042 | [3] -0.064 | [4] 0.046 | [5] 0.025 | [6] -0.005 | [7] -0.015 | [8] 0.008 | [9] -0.102 | [10] 0 | [11] 0.044 | [12] -0.218 | [13] -0.021 | [14] 0.039 | [15] -0.007

TRIM38 (UniProt O00635)
inactive: [1] -0.008 | [2] -0.036 | [3] -0.084 | [4] 0.027 | [5] 0.056 | [6] -0.032 | [7] 0.016 | [8] -0.017 | [9] 0.062 | [10] 0.069 | [11] 0.037 | [12] -0.21 | [13] 0.042 | [14] -0.045 | [15] -0.074

(further entries)

TRIT1 (UniProt Q9H3H1)
inactive: [1] 0.047 | [2] -0.062 | [3] -0.059 | [4] 0.005 | [5] 0.052 | [6] 0.065 | [7] 0.016 | [8] 0.062 | [9] 0.052 | [10] 0.034 | [11] 0.05 | [12] -0.14 | [13] -0.002 | [14] -0.108 | [15] 0.04

TRAPPC9 isoform 2 (UniProt Q96Q05)
active: [12] -0.375
inactive: [1] 0.034 | [2] 0.005 | [3] -0.051 | [4] -0.011 | [5] 0.068 | [6] -0.07 | [7] 0.026 | [8] 0 | [9] -0.011 | [10] -0.073 | [11] 0.005 | [13] 0.046 | [14] 0 | [15] -0.049

TSEN2 (UniProt Q8NCE0)
inactive: [1] -0.003 | [2] -0.035 | [3] -0.052 | [4] 0.014 | [5] 0.029 | [6] -0.147 | [7] 0.024 | [8] 0.048 | [9] 0.001 | [10] -0.066 | [11] -0.022 | [12] -0.046 | [13] -0.053 | [14] -0.02 | [15] 0.047

TRMT61A (UniProt Q96FX7)
inactive: [1] 0.025 | [2] 0.011 | [3] 0.028 | [4] -0.008 | [5] 0.005 | [6] 0.04 | [7] 0.05 | [8] 0.004 | [9] 0.015 | [10] -0.011 | [11] 0.018 | [12] 0.059 | [13] -0.06 | [14] 0.014 | [15] -0.035

TRMT10C (UniProt Q7L0Y3)
inactive: [1] -0.017 | [2] 0.054 | [3] -0.016 | [4] 0.039 | [5] 0.014 | [6] -0.042 | [7] 0.033 | [8] 0.022 | [9] 0.021 | [10] -0.023 | [11] 0.024 | [12] -0.248 | [13] 0.024 | [14] 0.014 | [15] -0.015

TRNT1 (UniProt Q96Q11)
inactive: [1] 0.003 | [2] 0.01 | [3] 0.032 | [4] -0.023 | [5] 0.012 | [6] -0.009 | [7] -0.016 | [8] 0.013 | [9] 0.006 | [10] 0.008 | [11] 0.002 | [12] -0.132 | [13] -0.011 | [14] -0.007 | [15] 0.04

TTI1 (UniProt O43156)
inactive: [1] -0.007 | [2] 0.004 | [3] 0.005 | [4] 0.001 | [5] 0.016 | [6] -0.047 | [7] -0.015 | [8] -0.003 | [9] 0.01 | [10] -0.001 | [11] -0.037 | [13] 0.089 | [14] -0.019 | [15] -0.017
active: [12] -0.452

TTI2 (UniProt Q6NXR4)
inactive: [1] 0.022 | [2] 0.029 | [3] -0.051 | [4] 0.044 | [5] 0.01 | [6] -0.009 | [7] -0.018 | [8] -0.003 | [9] 0.049 | [10] -0.013 | [11] 0.05 | [13] 0.015 | [14] 0.034 | [15] 0.005
active: [12] -0.303

TRAPPC6B (UniProt Q86SZ2)
inactive: [1] 0.018 | [2] 0.055 | [3] 0.039 | [4] 0.005 | [5] 0.005 | [6] 0.149 | [7] -0.007 | [8] -0.015 | [9] 0.007 | [10] 0.003 | [11] -0.025 | [12] -0.009 | [13] -0.012 | [14] 0.015 | [15] 0.008

TRAFD1 (UniProt O14545)
inactive: [1] 0.036 | [2] 0.041 | [3] -0.064 | [4] 0.005 | [5] -0.071 | [6] 0.016 | [7] -0.012 | [8] -0.028 | [9] 0.017 | [10] -0.03 | [11] -0.021 | [12] 0.029 | [13] 0.029 | [14] -0.01 | [15] -0.035

TRAPPC4 (UniProt Q9Y296)
inactive: [1] 0.022 | [2] 0.024 | [3] -0.035 | [4] -0.009 | [5] 0.034 | [6] -0.046 | [7] -0.018 | [8] 0.001 | [9] 0.009 | [10] 0.015 | [11] -0.041 | [12] -0.168 | [13] 0.059 | [14] -0.029 | [15] -0.03

TSEN34 (UniProt Q9BSV6)
inactive: [1] 0.02 | [2] 0.05 | [3] -0.085 | [4] -0.032 | [5] -0.011 | [6] 0.012 | [7] 0.037 | [8] 0.013 | [9] -0.006 | [10] -0.065 | [11] 0.072 | [12] -0.083 | [13] -0.047 | [14] 0.027 | [15] -0.008

TRIM65 (UniProt Q6PJ69)
inactive: [1] -0.025 | [2] -0.008 | [3] -0.059 | [4] -0.021 | [5] 0.005 | [6] -0.016 | [7] -0.004 | [8] 0 | [9] 0.08 | [10] -0.017 | [11] 0.018 | [12] -0.094 | [13] -0.006 | [14] 0.002 | [15] -0.009

TRIM32 (UniProt Q13049)
inactive: [1] 0.019 | [2] 0.036 | [3] -0.048 | [4] -0.015 | [5] 0.057 | [6] 0.027 | [7] -0.063 | [8] -0.018 | [9] -0.008 | [10] -0.069 | [11] 0.002 | [12] -0.045 | [13] 0.011 | [14] -0.004 | [15] -0.061

TRMT13 (UniProt Q9NUP7)
inactive: [1] 0.031 | [2] -0.016 | [3] -0.016 | [4] -0.049 | [5] -0.04 | [6] 0.03 | [7] 0.008 | [8] -0.074 | [9] -0.04 | [10] 0.025 | [11] -0.077 | [12] -0.112 | [13] 0.024 | [14] -0.051 | [15] 0.024

TRMT2B (UniProt Q96GJ1)
inactive: [1] -0.08 | [2] -0.002 | [3] -0.123 | [4] 0.065 | [5] 0.041 | [6] 0.017 | [7] 0.039 | [8] -0.004 | [9] -0.012 | [10] 0.018 | [12] -0.242 | [13] 0.04 | [14] -0.003
